Reference: patent US20210087263A1
No constants are given. Whether binding was seen depends on the method and setting. Some binding calls cover weakened binding; strength is not graded here.

T1: recombinant cynomolgus monkey CXCL13 (cynomolgus monkey)
T1 sequence: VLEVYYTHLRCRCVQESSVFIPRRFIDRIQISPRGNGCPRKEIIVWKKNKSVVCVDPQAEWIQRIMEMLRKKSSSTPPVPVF


Legend:
[1] = target: T1, recombinant cynomolgus monkey CXCL13 (cynomolgus monkey); assay: specificity ELISA, chemokine coated on plate
[2] = target: T1, recombinant cynomolgus monkey CXCL13 (cynomolgus monkey); assay: specificity ELISA, chemokine coated at 100 nM

Binder	binding [1]	binding [2]
3D2 (antibody, mouse IgG1, V domains shown) VH: EVQLQESGPGILQPSQTLNLTCSFSGFSLSTFGMGVGWIRQPSGKGLEWLAHIWWDDDRRYNPALKSRLTISKETSKNQVFLKIANVDTADTATYYCTRIAGYYGSRDWFAYWGQGTTVTVSS VL: DIVLTQSPASLAVSLGQRATISCRASESVDNSGISFMHWYQQKPGQPPKLLIFRASDLESGIPARFSGSGSRTDFTLTVNPVETDDVATYFCQQSNKDPWTFGGGTKLEIK	binds	binds
MAb 5261 (antibody, V domains shown) VH: QVQLQESGPGLVKPSETLSLTCTVSGFSLSTFGMGVGWIRQPPGKGLEWIAHIWWDDDRRYNPALKSRVTISKDTSKNQFSLKLSSVTAADTAVYYCARIAGYYGSRDWFAYWGQGTTVTVSS VL: DIQMTQSPSSLSASVGDRVTITCRASESVDNMGISFMHWYQQKPGKAPKLLIFRASDLESGVPSRFSGSGSGTDFTLTISSLQPEDFATYYCQQSNKDPWTFGQGTKLEIK		binds
MAb 5080 (antibody, V domains shown) VH: QVQLQESGPGLVKPSETLSLTCTVSGFSLSTFGMGVGWIRQPPGKGLEWIAHIWWDDDRRYNPALKSRVTISKDTSKNQFSLKLSSVTAADTAVYYCARIAGYYGSRDWFAYWGQGTTVTVSS VL: DIQMTQSPSSLSASVGDRVTITCRASESVDNSGISFMHWYQQKPGKAPKLLIFRASDLESGVPSGFSGSGSRTDFTLTISSLQPEDFATYYCQQSNKDPWTFGQGTKLEIK		binds
MAb 1476 (antibody, V domains shown) VH: EVQLQESGPGILQPSQTLNLTCSFSGFSLSTFGMGVGWIRQPSGKGLEWLAHIWWDDDRRYNPALKSRLTISKETSKNQVFLKIANVDTADTATYYCTRIAGYYGSRDWFAYWGQGTTVTVSS VL: DIVLTQSPASLAVSLGQRATISCRASESVDNSGISFMHWYQQKPGQPPKLLIFRASDLESGIPARFSGSGSRTDFTLTVNPVETDDVATYFCQQSNKDPWTFGGGTKLEIK		binds
MAb 5378 (antibody, V domains shown) VH: QVQLQESGPGLVKPSETLSLTCTVSGFSLSTFGMGVGWIRQPPGKGLEWIAHIWWDDDRRYNPALKSRVTISKDTSKNQFSLKLSSVTAADTAVYYCARIAGYYGSRDWFAYWGQGTTVTVSS VL: DIQMTQSPSSLSASVGDRVTITCRASESVDNMGISFMHWYQQKPGKAPKLLIFRASDLESGVPSRFSGSGSGTDFTLTISSLQPEDFATYYCQQSNKDPWTFGQGTKLEIK		binds
